Test results from paper PMC7693736.

Biological target: Myc-SIRT3
Assay: co-IP; Flag-tagged TLR9 and its fragments coexpressed in 293 cells with Myc-Sirt3; anti-Myc immunoprecipitates analysed by anti-Flag immunoblotting

binding: binds
B1: Flag-tagged TLR9 with only TIR domain (TIR) (domain or fragment, UniProt Q9NR96 868-1013)
chain: LPYDAFVVFDKTQSAVADWVYNELRGQLEECRGRWALRLCLEERDWLPGKTLFENLWASVYGSRKTLFVLAHTDRVSGLLRASFLLAQQRLLEDRKDVVVLVILSPDGRRSRYVRLRQRLCRQSVLLWPHQPSGQRSFWAQLGMAL

No constants are given. Whether binding was seen depends on the method and setting. Binding seen in cells or lysates may run through a third protein. Binding calls can cover weak binding; strength is not graded here. Where a sequence is shown, tags or fusion partners need not be part of it.
